The record followed here is patent US5702926.

Protein sequences can lack the tags named with them.

In this data set the target is T1, BsoBI restriction endonuclease (UniProt P70985).
T1 sequence (looked up, limits assumed): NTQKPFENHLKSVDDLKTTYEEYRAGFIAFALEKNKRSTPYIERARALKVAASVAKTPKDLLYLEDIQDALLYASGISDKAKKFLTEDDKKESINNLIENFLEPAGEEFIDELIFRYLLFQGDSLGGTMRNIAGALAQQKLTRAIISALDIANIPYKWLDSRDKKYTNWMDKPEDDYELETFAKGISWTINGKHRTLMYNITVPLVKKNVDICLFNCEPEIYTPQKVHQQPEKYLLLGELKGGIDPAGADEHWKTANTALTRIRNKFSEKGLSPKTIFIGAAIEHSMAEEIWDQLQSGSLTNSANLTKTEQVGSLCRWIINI
The experiment in a line: enzyme reaction in vitro. Conditions: modified strand completely protected, unmodified strand efficiently cleaved (nicking), 35 mM KiPO4, 60 C, 15 min, purified recombinant protein, label: 32P 5' end on template or primer.

In the case of CTCGGG (double strand), the “activity on this sequence” value runs as follows: (PS dC in the extended strand) “active”; (alpha-boranophosphate dC in the extended strand) “active”.
